Record: PubChem BioAssay AID504793 (Drosophila RNAi Screening Center, 2011)
The deposit covers about 23,000 reagents; below is a random part of those with a known target gene and a result. In the full data, 62 (0.27%) got an active call. 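Calls come from follow-up tests whose scores are not deposited, so confirmed genes may have low counts here; counts are not normalised per plate.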 Raw values are not corrected between plates. Reagents against one gene are numbered here.

- Assay: 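Genes required for cells to halt at G2/M after double-strand DNA breaks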 (primary screen)
- System: Drosophila S2R+ cells
- Reagents: long dsRNA against Drosophila genes, about 0.25 µg dsRNA per well
- Duration: 4 days of dsRNA, then 4 hours of drug before read-out
- Challenge: doxorubicin 0.5 µM for 4 hours to cause double-strand breaks, in cells also given a low, harmless dose of dsRNA against nbs to sensitise the assay
- Detection: 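Mitotic index as the number of phospho-histone H3-positive cells in each well following doxorubicin, given as raw counts without normalisation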
- Reading the numbers: mitotic cells: higher = more cells in mitosis, weaker G2 arrest
- Hit rule: 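a call needs confirmation in secondary tests, with other dsRNAs and a check of mitotic timing without damage, not just a high primary count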
- Meaning of the calls: active = confirmed in follow-up tests; inactive = not confirmed

nAChRalpha5 (GeneID 34826) #1 scored mitotic cells, replicate 1 = 8; inactive. Against nAChRalpha5 (GeneID 34826) #2, the values are mitotic cells, replicate 1 = 9; inactive. Against nAChRalpha5 (GeneID 34826) #3, the values are mitotic cells, replicate 1 = 11; inactive. Silencing of nAChRalpha5 (GeneID 34826) #4 resulted in: mitotic cells, replicate 1 = 3; inactive. brun (GeneID 35325) scored mitotic cells, replicate 1 = 3; inactive. CG33292 (retired record) (GeneID 2768953) #1 gave mitotic cells, replicate 1 = 7; inactive.

CG33292 (retired record) (GeneID 2768953) #2 scored mitotic cells, replicate 1 = 5; inactive. Against Gr22d (retired record) (GeneID 3772682) #1 the deposit lists mitotic cells, replicate 1 = 10; inactive. Knock-down of Gr22d (retired record) (GeneID 3772682) #2 resulted in: mitotic cells, replicate 1 = 7; inactive. Against CG42445 (GeneID 8674111), the values are mitotic cells, replicate 1 = 6; inactive. Against Shal (GeneID 40129) #1 the deposit lists mitotic cells, replicate 1 = 9; inactive. Shal (GeneID 40129) #2 scored mitotic cells, replicate 1 = 4; inactive.

Knock-down of jumu (GeneID 41265) resulted in: mitotic cells, replicate 1 = 5; inactive. MICAL-like (GeneID 39475) gave mitotic cells, replicate 1 = 4; inactive. For CG8343 (GeneID 35544) #1, the entry reads mitotic cells, replicate 1 = 4; inactive. Depletion of CG8343 (GeneID 35544) #2 resulted in: mitotic cells, replicate 1 = 5; inactive. Against D1 (GeneID 41095), the values are mitotic cells, replicate 1 = 7; inactive.

2 of these entries, set out differently:
| gene knocked down | dsRNA no. | mitotic cells, replicate 1 | mitotic cells, replicate 2 | outcome |
| --- | --- | --- | --- | --- |
| nAChRalpha5 (GeneID 34826) | 1 | 8 | – | inactive |
| nAChRalpha5 (GeneID 34826) | 2 | 9 | – | inactive |

The results go on:
bun (GeneID 34665) #1 gave mitotic cells, replicate 1 = 6; inactive. bun (GeneID 34665) #2 showed mitotic cells, replicate 1 = 4; inactive. bun (GeneID 34665) #3 scored mitotic cells, replicate 1 = 3; inactive. For CG3650 (GeneID 37974) #1, the entry reads mitotic cells, replicate 1 = 4; inactive. Silencing of CG3650 (GeneID 37974) #2 gave: mitotic cells, replicate 1 = 1; inactive. After knock-down of Ir62a (GeneID 3885628), the screen gave mitotic cells, replicate 1 = 14; inactive.

Knock-down of ergic53 (GeneID 44679) resulted in: mitotic cells, replicate 1 = 4; inactive. With knock-down of TAF1B (GeneID 41242), the record shows mitotic cells, replicate 1 = 2; inactive. For Cdk5 (GeneID 36727), the values are mitotic cells, replicate 1 = 2; inactive. Depletion of Tsp42Ef (GeneID 35615) resulted in: mitotic cells, replicate 1 = 6; inactive. With knock-down of CG32137 (GeneID 39537) the results were mitotic cells, replicate 1 = 9; inactive. Depletion of CG2641 (GeneID 40921) resulted in: mitotic cells, replicate 1 = 4; inactive.

After knock-down of CG4768 (GeneID 32666), the screen gave mitotic cells, replicate 1 = 9; mitotic cells, replicate 2 = 6; inactive. Knock-down of dally (GeneID 39013) #1 resulted in: mitotic cells, replicate 1 = 8; inactive. Knock-down of dally (GeneID 39013) #2 came out at: mitotic cells, replicate 1 = 5; inactive. CG3246 (GeneID 33564) scored mitotic cells, replicate 1 = 5; inactive. Silencing of ox (GeneID 45401) resulted in: mitotic cells, replicate 1 = 9; inactive.
